Source: publication PMC3828182
These are yes or no findings as the source states them, for the method shown. Binding seen in cells or lysates may run through a third protein. These calls come from enrichment with a bait or labelling near it, and not all partners need be listed. No binding means not detected with the bait. Tags and fused reporters may be left off the sequences shown.

The chains behind the UniProt entries cited, without tags or fusion partners.
UniProt Q9Y2L5: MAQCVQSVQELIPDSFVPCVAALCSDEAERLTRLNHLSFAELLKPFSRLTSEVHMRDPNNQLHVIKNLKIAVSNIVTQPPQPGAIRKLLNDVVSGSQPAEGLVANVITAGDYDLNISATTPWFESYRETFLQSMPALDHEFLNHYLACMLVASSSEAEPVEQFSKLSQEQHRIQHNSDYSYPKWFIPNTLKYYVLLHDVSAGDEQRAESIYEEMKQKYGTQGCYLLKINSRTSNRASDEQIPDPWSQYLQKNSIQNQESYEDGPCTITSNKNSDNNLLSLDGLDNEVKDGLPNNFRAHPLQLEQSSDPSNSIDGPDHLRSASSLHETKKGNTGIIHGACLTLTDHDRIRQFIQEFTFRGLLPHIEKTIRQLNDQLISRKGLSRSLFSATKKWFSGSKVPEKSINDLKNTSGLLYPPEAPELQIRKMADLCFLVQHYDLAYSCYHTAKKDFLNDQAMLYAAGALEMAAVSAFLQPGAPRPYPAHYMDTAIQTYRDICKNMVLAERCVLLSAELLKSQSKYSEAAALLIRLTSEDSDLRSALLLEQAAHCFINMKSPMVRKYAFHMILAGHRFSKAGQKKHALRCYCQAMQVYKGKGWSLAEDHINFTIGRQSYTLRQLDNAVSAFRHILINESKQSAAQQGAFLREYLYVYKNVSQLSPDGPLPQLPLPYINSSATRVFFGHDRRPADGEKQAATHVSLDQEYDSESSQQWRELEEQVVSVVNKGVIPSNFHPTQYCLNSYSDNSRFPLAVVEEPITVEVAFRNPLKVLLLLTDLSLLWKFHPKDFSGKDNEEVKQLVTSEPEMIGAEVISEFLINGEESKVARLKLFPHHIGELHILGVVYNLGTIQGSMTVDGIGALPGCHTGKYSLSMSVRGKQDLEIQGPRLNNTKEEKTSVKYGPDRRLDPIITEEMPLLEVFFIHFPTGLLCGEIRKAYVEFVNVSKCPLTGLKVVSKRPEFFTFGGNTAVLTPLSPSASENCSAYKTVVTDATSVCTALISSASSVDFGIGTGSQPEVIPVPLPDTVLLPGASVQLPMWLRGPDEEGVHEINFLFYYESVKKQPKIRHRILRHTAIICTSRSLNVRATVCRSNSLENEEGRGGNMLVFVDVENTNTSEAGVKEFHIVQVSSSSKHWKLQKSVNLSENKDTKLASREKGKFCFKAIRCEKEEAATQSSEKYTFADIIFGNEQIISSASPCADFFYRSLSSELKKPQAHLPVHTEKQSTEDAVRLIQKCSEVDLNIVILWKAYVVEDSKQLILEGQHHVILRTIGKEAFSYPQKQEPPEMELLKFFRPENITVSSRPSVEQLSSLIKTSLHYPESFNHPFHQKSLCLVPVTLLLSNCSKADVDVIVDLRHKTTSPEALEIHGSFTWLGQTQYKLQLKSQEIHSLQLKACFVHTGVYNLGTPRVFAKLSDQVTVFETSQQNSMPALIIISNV

Target: T1, FLAG-tagged HPV51 Nu strain L2 (51NuL2-FLAG) (human papillomavirus type 51, Nu strain) (UniProt P26539)
T1 sequence: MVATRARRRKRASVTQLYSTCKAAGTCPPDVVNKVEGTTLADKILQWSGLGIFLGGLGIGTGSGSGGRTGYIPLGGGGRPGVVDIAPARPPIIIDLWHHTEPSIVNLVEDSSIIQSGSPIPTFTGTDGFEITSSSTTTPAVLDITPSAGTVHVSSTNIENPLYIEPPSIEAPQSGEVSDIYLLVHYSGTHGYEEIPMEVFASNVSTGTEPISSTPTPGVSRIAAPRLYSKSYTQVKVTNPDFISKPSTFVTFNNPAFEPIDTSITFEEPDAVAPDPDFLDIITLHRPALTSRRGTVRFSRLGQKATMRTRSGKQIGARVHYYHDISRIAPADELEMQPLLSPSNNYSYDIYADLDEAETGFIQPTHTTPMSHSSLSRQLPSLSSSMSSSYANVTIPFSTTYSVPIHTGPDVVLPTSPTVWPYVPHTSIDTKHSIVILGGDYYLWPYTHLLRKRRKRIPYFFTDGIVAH
Experiment: affinity purification with mass spectrometry; anti-FLAG precipitates of 51MaL2-FLAG and 51NuL2-FLAG from HEK293FT lysates compared on a SYPRO Ruby-stained SDS gel; the 150-kDa band excised, digested with trypsin, MALDI-QIT-TOF MS, Mascot

For “transport protein particle complex subunit 8 (TRAPPC8) (from UniProt Q9Y2L5 1-1435)”, the binding was “no binding”.
